Some of these results come from one statement about several compounds together. Peptide text beside a SMILES is read from it. * marks the point of attachment. Cbz = O=C(OCc1ccccc1)*
Test system: β-amyloid peptide production in 293 751 SWE cells
Assay: Cellular screen for the detection of inhibitors of β-amyloid production (ELISA)
Type: cell-based, human
Conditions: β-amyloid ELISA of conditioned media, normalized to MTT, relative to drug free control

| Compound | reduction of β-amyloid peptide production as compared to control |
| --- | --- |
| O=CC(Cc1ccccc1)NC(=O)OCc1ccccc1 (centres unmarked) [Example 39] | able to reduce β-amyloid peptide production as compared to control |
| CC(C)C(NC(=O)OCc1ccccc1)C(=O)NC(C=O)Cc1ccccc1 (stereo not drawn) [Example 30] (Cbz-Val-Phe-aldehyde; configuration not given here) | able to reduce β-amyloid peptide production as compared to control |

Reference: patent publication US5849711A, “Cathepsin and methods and compositions for inhibition thereof” (Athena Neurosciences, Inc., priority 1995, dated 1998)
